Reference: PubChem BioAssay AID1224828 (NIAID, 2016)

Test: 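Knock-downs that increase or decrease LPS-induced p65 nuclear translocation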 (primary screen)
Cell system: mouse RAW264.7 G9 macrophage reporter cells (GFP-p65, Tnf promoter-mCherry)
Reagents: siRNA pool against mouse genes, 100 nM
Time to read-out: 2 days siRNA transfection, then 40 min LPS before fixation
Challenge: LPS (Salmonella minnesota R595) at 10 ng/ml
Measurement: 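Microscopy ratio of nuclear to perinuclear-ring GFP-p65 signal, scaled to the plate median; gene score is the average of two replicate robust z-scores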
Reading the numbers: p65 translocation robust z-score: higher = more nuclear NF-kappaB p65 after LPS than the plate median; nuclear/cytoplasmic p65 ratio: higher = more nuclear NF-kappaB p65
Call rule: 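Active if robust z is above 3.3 (negative regulators) or below -1.56, the Tlr4 control median (positive regulators); activity score 50 or more; control wells not called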
Meaning of the calls: active = hit (p65 shift raised or lowered); inactive = no clear change
In all, the deposit lists about 17,000 reagents; this is a random part of them. 762 of them (4.5%) count as active. 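Active calls include both raised and lowered p65 entry, mostly lowered; wells with fewer than 50 cells lack a z-score.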 Raw values are not corrected between plates.

no.	gene	PubChem SID	p65 translocation robust z-score	nuclear/cytoplasmic p65 ratio, rep 1	nuclear/cytoplasmic p65 ratio, rep 2	low cell count flag	outcome
1	Vmn1r24 (vomeronasal 1 receptor 24)	SID315477280	0.32	1.49	1.22	enough cells to score	inactive
2	Ctla2a (cytotoxic T lymphocyte-associated protein 2 alpha)	SID315466189	0.18	1.61	1.8	enough cells to score	inactive
3	Phxr4 (per-hexamer repeat gene 4)	SID315468502	0.32	1.52	1.25	enough cells to score	inactive
4	Klk1b4 (kallikrein 1-related pepidase b4)	SID315468168	-1.11	1.49	1.53	enough cells to score	inactive
5	Tas2r130 (taste receptor, type 2, member 130)	SID315481867	0.21	1.4	1.76	enough cells to score	inactive
6	Elf3 (E74-like factor 3)	SID315466482	-1.53	1.24	1.19	enough cells to score	inactive
7	Mfn1 (mitofusin 1)	SID315473007	2.82	2.17	1.95	enough cells to score	inactive
8	Spta1 (spectrin alpha, erythrocytic 1)	SID315469430	0.67	1.5	1.8	enough cells to score	inactive
9	Cd69 (CD69 antigen)	SID315465871	-1.3	1.28	1.21	enough cells to score	inactive
10	Mettl9 (methyltransferase like 9)	SID315471982	0.23	1.47	1.58	enough cells to score	inactive
11	Rnf135 (ring finger protein 135)	SID315474393		1.8	1.8	fewer than 50 cells per well; well left out of scoring	inactive
12	Nfkbib	SID315468159	0.05	1.45	1.42	enough cells to score	inactive
13	Plekhm3 (pleckstrin homology and RUN domain containing M3)	SID315479544	-0.02	1.51	1.46	enough cells to score	inactive
14	Ppp1r1b (protein phosphatase 1, regulatory inhibitor subunit 1B)	SID315468663	-0.02	1.65	1.4	enough cells to score	inactive
15	Mapk13 (mitogen-activated protein kinase 13)	SID315470392	0.36	1.84	1.42	enough cells to score	inactive
16	Pigx (phosphatidylinositol glycan anchor biosynthesis, class X)	SID315474448		1.54	1.31	fewer than 50 cells per well; well left out of scoring	inactive
17	Anapc2 (anaphase promoting complex subunit 2)	SID315476167	0.05	1.66	1.6	enough cells to score	inactive
18	Pemt (phosphatidylethanolamine N-methyltransferase)	SID315468464	-1.45	1.27	1.08	enough cells to score	inactive
19	Id3 (inhibitor of DNA binding 3)	SID315467367	-0.87	1.29	1.29	enough cells to score	inactive
20	Bend3 (BEN domain containing 3)	SID315481646	-1.41	1.3	1.56	enough cells to score	inactive
21	Crlf1 (cytokine receptor-like factor 1)	SID315466122	0.71	1.69	1.36	enough cells to score	inactive
22	Gm5105 (predicted gene 5105)	SID315481549	-1.26	1.41	1.35	enough cells to score	inactive
23	Kdm5b (lysine demethylase 5B)	SID315475158	-0.4	1.39	1.35	enough cells to score	inactive
24	Abtb2 (ankyrin repeat and BTB domain containing 2)	SID315476178	0.13	1.47	1.69	enough cells to score	inactive

Taken from above.
Entry for Anapc2 (anaphase promoting complex subunit 2) [SID315476167] in “nuclear/cytoplasmic p65 ratio, rep 1”: 1.66
Result of Phxr4 (per-hexamer repeat gene 4) [SID315468502] in “outcome”: inactive
Result of Mfn1 (mitofusin 1) [SID315473007] in “nuclear/cytoplasmic p65 ratio, rep 1”: 2.17
